Our source for the log2 fold change values is the supplement of paper PMC10849652.

The chains behind the UniProt entries cited, without tags or fusion partners. Where a name states a change or a piece, a line headed by the entry shows the natural chain unless it says otherwise.
UniProt Q13546: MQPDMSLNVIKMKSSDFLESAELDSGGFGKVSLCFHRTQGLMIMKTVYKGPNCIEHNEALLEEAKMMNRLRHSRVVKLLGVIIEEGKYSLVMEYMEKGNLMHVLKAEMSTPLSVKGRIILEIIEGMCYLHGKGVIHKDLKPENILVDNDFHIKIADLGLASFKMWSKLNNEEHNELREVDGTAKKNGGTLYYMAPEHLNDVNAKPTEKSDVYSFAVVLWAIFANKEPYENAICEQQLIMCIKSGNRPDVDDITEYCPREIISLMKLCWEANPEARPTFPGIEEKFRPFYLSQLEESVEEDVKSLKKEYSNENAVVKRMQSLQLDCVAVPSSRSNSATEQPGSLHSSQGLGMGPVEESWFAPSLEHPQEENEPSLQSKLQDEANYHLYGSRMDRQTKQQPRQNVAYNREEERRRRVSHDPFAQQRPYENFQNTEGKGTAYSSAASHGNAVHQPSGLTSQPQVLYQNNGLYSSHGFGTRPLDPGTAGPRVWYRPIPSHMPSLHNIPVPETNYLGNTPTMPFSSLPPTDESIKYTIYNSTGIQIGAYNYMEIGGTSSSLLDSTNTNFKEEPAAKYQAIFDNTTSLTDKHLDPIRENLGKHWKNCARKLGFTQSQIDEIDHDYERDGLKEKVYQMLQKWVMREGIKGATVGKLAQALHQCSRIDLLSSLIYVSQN
UniProt O14730: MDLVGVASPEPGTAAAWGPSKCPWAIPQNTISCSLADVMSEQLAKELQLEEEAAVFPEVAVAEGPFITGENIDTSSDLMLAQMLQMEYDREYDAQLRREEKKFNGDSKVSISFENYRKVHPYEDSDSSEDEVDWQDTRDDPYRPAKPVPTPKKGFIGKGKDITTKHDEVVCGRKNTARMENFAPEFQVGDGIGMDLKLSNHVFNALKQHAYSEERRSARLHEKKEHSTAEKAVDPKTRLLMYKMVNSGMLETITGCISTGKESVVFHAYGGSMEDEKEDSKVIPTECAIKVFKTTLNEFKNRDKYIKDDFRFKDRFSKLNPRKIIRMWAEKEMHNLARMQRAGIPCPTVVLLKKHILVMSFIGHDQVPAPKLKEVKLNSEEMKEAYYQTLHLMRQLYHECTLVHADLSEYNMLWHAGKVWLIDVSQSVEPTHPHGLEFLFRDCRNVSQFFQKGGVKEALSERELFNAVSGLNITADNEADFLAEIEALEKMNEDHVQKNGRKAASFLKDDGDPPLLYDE
UniProt Q9NTX7: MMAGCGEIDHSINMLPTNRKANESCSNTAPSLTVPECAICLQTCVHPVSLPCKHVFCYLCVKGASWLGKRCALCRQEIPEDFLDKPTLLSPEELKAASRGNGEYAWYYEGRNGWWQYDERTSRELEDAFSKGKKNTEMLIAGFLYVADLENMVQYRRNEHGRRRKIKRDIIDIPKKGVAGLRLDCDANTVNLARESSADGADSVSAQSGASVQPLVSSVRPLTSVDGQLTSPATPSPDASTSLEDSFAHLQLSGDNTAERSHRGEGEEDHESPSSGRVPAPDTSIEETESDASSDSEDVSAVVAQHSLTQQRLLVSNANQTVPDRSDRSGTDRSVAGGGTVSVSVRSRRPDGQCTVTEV
UniProt Q01974, whole entry, looked up: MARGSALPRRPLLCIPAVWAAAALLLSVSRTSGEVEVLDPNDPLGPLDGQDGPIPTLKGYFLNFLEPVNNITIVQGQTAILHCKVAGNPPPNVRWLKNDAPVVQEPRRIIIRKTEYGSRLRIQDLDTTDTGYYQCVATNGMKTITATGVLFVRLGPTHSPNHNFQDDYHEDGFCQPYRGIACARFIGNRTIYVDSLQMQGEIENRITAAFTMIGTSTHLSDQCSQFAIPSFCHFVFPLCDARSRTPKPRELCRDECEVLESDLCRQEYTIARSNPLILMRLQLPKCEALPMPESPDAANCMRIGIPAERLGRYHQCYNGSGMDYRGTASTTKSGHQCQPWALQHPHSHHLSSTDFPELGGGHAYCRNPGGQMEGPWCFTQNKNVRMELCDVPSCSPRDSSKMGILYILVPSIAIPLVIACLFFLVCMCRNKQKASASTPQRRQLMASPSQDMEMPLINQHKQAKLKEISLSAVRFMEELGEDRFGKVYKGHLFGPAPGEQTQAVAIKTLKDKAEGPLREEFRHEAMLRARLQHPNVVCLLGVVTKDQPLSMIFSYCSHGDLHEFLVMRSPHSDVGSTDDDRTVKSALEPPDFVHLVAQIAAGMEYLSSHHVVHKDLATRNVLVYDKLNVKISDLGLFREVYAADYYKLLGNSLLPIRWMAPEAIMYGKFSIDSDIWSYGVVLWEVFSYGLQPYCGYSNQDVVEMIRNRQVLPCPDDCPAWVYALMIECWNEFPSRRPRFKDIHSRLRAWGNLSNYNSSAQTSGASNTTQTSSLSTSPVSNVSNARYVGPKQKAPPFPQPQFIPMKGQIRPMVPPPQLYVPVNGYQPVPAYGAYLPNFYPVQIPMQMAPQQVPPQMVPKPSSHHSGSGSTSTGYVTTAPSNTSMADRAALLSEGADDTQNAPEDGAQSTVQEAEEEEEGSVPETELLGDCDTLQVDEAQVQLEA
UniProt Q13464: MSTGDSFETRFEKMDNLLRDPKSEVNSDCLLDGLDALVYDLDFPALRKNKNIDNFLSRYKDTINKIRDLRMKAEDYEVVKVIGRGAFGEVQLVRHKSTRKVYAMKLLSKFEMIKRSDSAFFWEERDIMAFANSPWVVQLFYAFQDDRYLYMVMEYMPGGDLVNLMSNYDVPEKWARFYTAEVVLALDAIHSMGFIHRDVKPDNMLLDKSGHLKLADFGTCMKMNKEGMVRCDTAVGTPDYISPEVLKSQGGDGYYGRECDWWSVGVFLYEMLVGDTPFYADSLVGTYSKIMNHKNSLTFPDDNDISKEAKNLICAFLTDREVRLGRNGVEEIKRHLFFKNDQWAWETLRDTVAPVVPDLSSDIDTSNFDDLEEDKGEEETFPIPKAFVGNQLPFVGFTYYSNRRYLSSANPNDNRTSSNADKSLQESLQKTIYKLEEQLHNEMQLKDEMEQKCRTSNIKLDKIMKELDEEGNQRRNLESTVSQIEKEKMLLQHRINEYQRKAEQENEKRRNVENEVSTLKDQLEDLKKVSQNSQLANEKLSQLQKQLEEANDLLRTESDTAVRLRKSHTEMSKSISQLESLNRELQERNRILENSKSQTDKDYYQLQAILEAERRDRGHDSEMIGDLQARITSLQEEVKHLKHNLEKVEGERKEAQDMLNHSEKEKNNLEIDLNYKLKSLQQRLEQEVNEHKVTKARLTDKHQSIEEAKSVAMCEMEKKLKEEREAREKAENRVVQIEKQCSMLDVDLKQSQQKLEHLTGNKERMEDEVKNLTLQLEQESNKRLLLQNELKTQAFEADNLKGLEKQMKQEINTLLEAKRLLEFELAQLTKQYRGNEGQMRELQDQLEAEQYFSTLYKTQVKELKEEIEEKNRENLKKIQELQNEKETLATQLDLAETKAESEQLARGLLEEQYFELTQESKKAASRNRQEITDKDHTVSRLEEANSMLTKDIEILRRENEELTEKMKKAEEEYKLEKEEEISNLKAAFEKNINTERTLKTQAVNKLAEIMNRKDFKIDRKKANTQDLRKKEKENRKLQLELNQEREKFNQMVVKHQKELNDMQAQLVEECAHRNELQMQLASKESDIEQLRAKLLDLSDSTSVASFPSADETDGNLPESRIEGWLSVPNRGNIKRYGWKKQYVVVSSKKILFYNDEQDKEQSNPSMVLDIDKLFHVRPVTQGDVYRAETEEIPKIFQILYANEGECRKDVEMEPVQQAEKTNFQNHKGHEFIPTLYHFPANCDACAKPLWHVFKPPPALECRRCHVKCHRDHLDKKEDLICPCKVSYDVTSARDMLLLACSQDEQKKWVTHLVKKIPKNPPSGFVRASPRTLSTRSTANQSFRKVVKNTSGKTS
UniProt Q9UBS8: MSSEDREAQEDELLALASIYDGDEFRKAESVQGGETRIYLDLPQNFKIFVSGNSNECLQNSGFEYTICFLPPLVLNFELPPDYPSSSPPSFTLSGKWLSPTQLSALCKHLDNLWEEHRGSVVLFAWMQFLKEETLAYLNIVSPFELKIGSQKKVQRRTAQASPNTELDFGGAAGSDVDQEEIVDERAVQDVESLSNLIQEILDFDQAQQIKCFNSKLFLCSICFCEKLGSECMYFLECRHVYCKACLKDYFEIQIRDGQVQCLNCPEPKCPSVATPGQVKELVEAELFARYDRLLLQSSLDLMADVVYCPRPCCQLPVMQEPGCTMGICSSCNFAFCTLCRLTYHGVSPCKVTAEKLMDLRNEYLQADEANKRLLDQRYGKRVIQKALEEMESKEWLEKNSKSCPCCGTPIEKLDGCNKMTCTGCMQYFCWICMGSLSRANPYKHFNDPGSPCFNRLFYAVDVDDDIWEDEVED
UniProt Q8IYW5, whole entry, looked up: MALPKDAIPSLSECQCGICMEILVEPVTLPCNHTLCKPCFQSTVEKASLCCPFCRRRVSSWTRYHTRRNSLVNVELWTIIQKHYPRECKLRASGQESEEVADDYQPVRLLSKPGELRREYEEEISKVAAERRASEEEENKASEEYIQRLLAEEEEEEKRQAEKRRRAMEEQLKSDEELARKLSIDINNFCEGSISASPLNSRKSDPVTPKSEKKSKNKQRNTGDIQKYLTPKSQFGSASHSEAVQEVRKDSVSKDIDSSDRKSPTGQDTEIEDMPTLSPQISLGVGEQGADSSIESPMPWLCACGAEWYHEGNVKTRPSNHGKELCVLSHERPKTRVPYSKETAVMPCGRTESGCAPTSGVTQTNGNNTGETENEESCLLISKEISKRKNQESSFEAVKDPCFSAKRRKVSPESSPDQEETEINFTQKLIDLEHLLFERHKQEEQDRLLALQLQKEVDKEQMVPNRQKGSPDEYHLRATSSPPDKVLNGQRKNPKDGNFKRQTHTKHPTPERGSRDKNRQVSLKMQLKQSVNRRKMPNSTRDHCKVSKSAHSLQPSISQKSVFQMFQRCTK
UniProt Q96TC7: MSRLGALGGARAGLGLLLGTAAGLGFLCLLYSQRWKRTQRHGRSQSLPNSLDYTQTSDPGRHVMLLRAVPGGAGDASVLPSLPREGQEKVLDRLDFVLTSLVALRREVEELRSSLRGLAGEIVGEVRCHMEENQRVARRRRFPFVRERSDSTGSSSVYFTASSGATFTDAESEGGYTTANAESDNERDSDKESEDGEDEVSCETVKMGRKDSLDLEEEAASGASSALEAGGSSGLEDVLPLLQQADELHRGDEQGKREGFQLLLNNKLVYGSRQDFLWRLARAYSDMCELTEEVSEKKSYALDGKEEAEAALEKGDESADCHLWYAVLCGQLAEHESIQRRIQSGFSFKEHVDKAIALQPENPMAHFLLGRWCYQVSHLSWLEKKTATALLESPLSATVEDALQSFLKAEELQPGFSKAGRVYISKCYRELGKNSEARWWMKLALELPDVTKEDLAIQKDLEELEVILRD
UniProt Q8TDP1: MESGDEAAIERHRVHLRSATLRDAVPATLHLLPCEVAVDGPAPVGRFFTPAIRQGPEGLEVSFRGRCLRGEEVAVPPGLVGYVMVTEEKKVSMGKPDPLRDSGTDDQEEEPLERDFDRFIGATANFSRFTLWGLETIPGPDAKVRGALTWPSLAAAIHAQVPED
UniProt Q5TBB1: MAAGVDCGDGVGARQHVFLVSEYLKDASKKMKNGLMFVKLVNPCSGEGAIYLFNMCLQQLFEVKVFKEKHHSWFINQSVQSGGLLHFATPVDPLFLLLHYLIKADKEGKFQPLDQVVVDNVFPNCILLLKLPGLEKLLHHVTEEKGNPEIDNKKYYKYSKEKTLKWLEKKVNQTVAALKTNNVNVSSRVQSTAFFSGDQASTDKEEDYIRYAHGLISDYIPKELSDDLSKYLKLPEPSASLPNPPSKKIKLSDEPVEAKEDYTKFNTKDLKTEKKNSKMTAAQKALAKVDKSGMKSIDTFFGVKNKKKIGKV
UniProt Q96DM3: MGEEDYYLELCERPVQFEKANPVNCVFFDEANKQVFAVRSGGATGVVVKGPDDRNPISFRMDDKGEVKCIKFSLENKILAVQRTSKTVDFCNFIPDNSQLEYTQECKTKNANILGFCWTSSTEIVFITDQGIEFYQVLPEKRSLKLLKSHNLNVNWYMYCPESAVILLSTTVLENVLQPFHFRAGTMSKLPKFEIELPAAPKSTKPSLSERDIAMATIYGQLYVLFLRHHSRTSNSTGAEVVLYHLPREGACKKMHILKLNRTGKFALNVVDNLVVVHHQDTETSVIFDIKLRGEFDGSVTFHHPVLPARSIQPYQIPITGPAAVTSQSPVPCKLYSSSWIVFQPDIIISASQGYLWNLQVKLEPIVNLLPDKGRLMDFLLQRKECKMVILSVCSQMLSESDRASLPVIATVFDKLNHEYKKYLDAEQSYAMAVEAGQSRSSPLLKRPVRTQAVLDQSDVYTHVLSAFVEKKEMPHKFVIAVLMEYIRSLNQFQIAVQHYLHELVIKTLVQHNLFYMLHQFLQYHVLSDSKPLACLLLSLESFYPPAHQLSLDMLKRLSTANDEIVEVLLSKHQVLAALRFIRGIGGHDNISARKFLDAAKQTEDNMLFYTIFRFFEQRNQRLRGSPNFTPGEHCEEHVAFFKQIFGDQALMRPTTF

This is one part of the list.

Compound in the test: COc1cc(Nc2ncc3c(n2)-c2ccc(Cl)cc2C(c2c(F)cccc2OC)=NC3)ccc1C(=O)O [alisertib]
The test can be described thus: log2 fold change, soluble protein after heating vs DMSO (PISA); higher = thermal stabilisation; K562 lysate, 10 uM; active = over 0.2 and 3.5 SD of the protein, either way, in both replicates (recomputed). The method, boiled down: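 The values are log-two fold changes in thermal stability compared with solvent controls and come from duplicates. They were obtained by TMTpro 16plex LC-MS/MS, with channel sums equalised, on the supernatant after 21,000xg for 90 min. That supernatant came from crude K562 extract at 1 mg/mL protein treated with 10 μM compound for 30 min, heated for 3 min across 48°C-58°C, pooled and brought to 0.5% NP-40 at 4°C.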
On to RPL36 (UniProt Q9Y3U8), for which the log2 fold change is inactive: 0.023. For the target RPL29 (UniProt P47914), the log2 fold change is inactive: 0.027.

As to RIPK1 (UniProt Q13546), the log2 fold change is inactive: -0.025. Then RP2 (UniProt O75695), with inactive: 0.01; and RNF166 (UniProt Q96A37), with inactive: 0.143; and RPL10A (UniProt P62906), with inactive: 0.008. RIOK3 (UniProt O14730): the log2 fold change is inactive: -0.006. With RNF146 (UniProt Q9NTX7), the log2 fold change is inactive: 0.038. As for ROR2 (UniProt Q01974), the log2 fold change is inactive: 0.013.

Consider RPL27 (UniProt P61353), for which the log2 fold change was inactive: 0.006. In the case of RPAP3 (UniProt Q9H6T3), the log2 fold change was inactive: 0.026. With RIPK2 (UniProt O43353), the log2 fold change is inactive: -0.021.

For the target RPL35 (UniProt P42766), the log2 fold change is inactive: 0.059. As for ROCK1 (UniProt Q13464), the log2 fold change was inactive: -0.045. For the target RNF126 (UniProt Q9BV68), the log2 fold change was inactive: -0.011. On to RPL18 (UniProt Q07020), for which the log2 fold change was inactive: 0.039. Consider RPL34 (UniProt P49207), for which the log2 fold change is inactive: 0.029.

Regarding RPL13A (UniProt P40429), the log2 fold change was inactive: -0.006. On to RNF14 (UniProt Q9UBS8), for which the log2 fold change was inactive: -0.043. Then RNF168 (UniProt Q8IYW5), with inactive: -0.078; and RPL3 (UniProt P39023), with inactive: -0.004. As for RPF2 (UniProt Q9H7B2), the log2 fold change was inactive: 0.082. RMDN3 (UniProt Q96TC7): the log2 fold change is inactive: 0.055. Then RPL14 (UniProt P50914), with inactive: -0.014. For the target RIC8B isoform 1 (UniProt Q9NVN3), the log2 fold change was inactive: 0.003. Then RPL32 (UniProt P62910), with inactive: 0.004. As to RIOX2 (UniProt Q8IUF8), the log2 fold change was inactive: -0.009. For the target RNF123 (UniProt Q5XPI4), the log2 fold change is inactive: -0.004. Take RPL30 (UniProt P62888): the log2 fold change was inactive: -0.002. For the target RNASEH2C (UniProt Q8TDP1), the log2 fold change is inactive: 0.049. For RNF181 (UniProt Q9P0P0), the log2 fold change is inactive: -0.011. In the case of RMDN1 (UniProt Q96DB5) it was inactive: -0.022; in that of RHOT2 (UniProt Q8IXI1), inactive: 0.01.

As for RNASEH2B (UniProt Q5TBB1), the log2 fold change was inactive: -0.031. For the target RPA3 (UniProt P35244), the log2 fold change was inactive: -0.031.

As for RMC1 (UniProt Q96DM3), the log2 fold change was inactive: 0. Turning to RNF213, A0A0A0MTC1, the log2 fold change was inactive: 0.013.
